These results are taken from doi:10.1101/842682.

For one assay, the target named is T1, GFP-Cep57l1 (mouse) (UniProt Q8VDS7).
T1 sequence: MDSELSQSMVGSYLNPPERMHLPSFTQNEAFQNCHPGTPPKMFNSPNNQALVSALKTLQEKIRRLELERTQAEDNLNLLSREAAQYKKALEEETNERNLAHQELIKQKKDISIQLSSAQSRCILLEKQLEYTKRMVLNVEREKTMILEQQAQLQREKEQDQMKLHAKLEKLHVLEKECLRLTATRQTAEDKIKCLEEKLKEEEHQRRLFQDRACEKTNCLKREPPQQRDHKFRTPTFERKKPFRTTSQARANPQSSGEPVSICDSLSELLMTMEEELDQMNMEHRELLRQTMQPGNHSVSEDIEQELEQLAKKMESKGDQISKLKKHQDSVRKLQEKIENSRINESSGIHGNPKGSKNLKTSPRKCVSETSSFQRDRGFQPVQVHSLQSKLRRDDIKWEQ
The assay is described as follows: co-IP.

Assay [1] concerns the target GFP-Cep57l1 N-terminus (mouse). The assay is described as follows: co-IP.

No constants are given. Whether binding was seen depends on the method and setting. In cells and extracts the contact can be indirect. A result given as binding can be weak or reduced; the word gives no strength. Tags and fused reporters may be left off the sequences shown.

On to “Flag-Cep63 N-terminal centriole-binding region (domain or fragment)”, for which the binding result with GFP-Cep57l1 (mouse) is listed as “binds”.

B1: Flag-Cep63 (protein, UniProt Q3UPP8 1-700)
chain: MEALLEGIQNRGHSGGFLTSCEAELQELMKQIDIMVAHKKSEWEGQTHALETCLDIRDRELKALRSQLDMKHKEVGILHQQIEEHEKTKQEMAMEYKEELLKLQEELSRLKRSYEKLQKKQLREFRGNTKSFREDRSEIERLTGKIEEFRQKSLDWEKQRLIYQQQVSSLEAQRKALAEQSEIIQAQLANRKQKLESVELSSQSEIQHLNSKLERAKDTICANELEIERLNIRVNDLMGTNMTILQDHRQKEEKLRESEKLLEALQEEQKELKASLQSQETFILEAKMQEKLQTTLKAVGTQQSVERPLEDCQKERKYSSPGQGVLDNVLSQLDFSHSSEELLQAEVTRLEGSLESVSATCKQLSQELMEKYEELKRMEGHNNEYRTEIKKLKEQILQADQTYSSALEGMKMEISQLTRELHQRDITIASAKCSSSDMEKQLKAEMQKAEEKAVEHKEILSQLESLKLENHRLSETVMKLELGLHEAKEISLADLQENYIEALNKLVSENQQLQKDLMSTKSELEHATNMCKKKDGEIFNPAHSRAAGFKNAELKPIHGQHRHDGIKTEQYKTGHHSPRGQTLDSIDPVARGPSPLSSHISPGSSTVSLPSNFLFEAHSLPSVLDINDVNFSDSLSDCMNDQEEFVSSGSLPTSPLGSIATRFLEEEELRSHHILERLDAHIEELKRESEKTVRQFTALV
In the case of B1, in assay [1], the binding entry is on record as “binds”.
